Measured values taken from PubChem BioAssay AID1307 (SRMLSC, 2008).
Hit rate of the full screen: of about 1,200 compounds, fewer than 10 were called active.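 The calls were made as follows: active = inhibition reaching a set limit at one or more tested concentrations; inactive = inhibition under that limit at every dose.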 Some of the results follow. Results with a measured potency or affinity are listed apart.

Assay: yeast RAM network inhibitors, dose response, S. cerevisiae (AID 1307);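 also: 0% = DMSO vehicle wells and 100% = 10 µM 1-NA-PP1 control; higher inhibition means more yeast growth since RAM block rescues cells from 5-FOA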
Settings: S. cerevisiae RAM network URA3 reporter, 5-FOA growth OD615, hits give high values, yeast express analog-sensitive mutant Cbk1 kinase; at 100 µM unless noted

Max inhibition, inactive:
CN(C(=O)COC(=O)c1sc2ccccc2c1Cl)C1CCCCC1 2.53% [at 0.782 µM]
CCOC(=O)c1c(NC(=O)CN2CCCc3ccccc32)sc(C)c1CC 3.9%
COc1ccccc1NC(=O)C(Sc1ccccc1)c1ccccc1 (stereo not drawn) 2.18% [at 50 µM]
Cc1ccc(N/N=C/c2c(C)c(C#N)c(=O)n(C)c2O)cc1C 2.33% [at 0.782 µM]
N#Cc1c(N)n(CCOC(=O)c2cccc([N+](=O)[O-])c2)c2nc3ccccc3nc12 12.7%
CCCCc1ccc(-c2csc(/C(C#N)=C\c3ccco3)n2)cc1 6.19% [at 50 µM]
CCN(c1ccccc1)S(=O)(=O)c1ccc(Cl)c(C(=O)NCCc2ccc(OC)cc2)c1 2.41% [at 0.782 µM]
C=C(C)CNC(=S)Nc1nc2c(cc1C(=O)OCC)CCCC2 2.44% [at 25 µM]
CN(Cc1cc(-c2ccccc2)on1)C(=O)c1cc(COc2c(F)cccc2F)on1 2.21% [at 1.563 µM]
COc1ccc(C(=O)CSc2nc(C(C)(C)C)nc3ccccc23)cc1 2.25% [at 1.563 µM]
CCCCN(CCCC)c1nc2ccccc2nc1C(C#N)C(=O)NCCCOC (stereo not drawn) 3.86%
CCCn1c2c(c(O)c(C(=O)Nc3ccccc3)c1=O)CCCC2 2.68% [at 50 µM]
O=c1c2ccccc2nc(SCc2cccc(F)c2)n1-c1cccc(S(=O)(=O)N2CCCC2)c1 3.66%
COc1ccc(C(=O)/C=C/C(=O)N(CC(=O)NCCC(C)C)Cc2cccs2)c(O)c1 5.31%
COc1ccc(NC(=O)C23CC4CC(C2)CC(c2ccccc2)(C4)C3)c(OC)c1 4.13%
C=CCn1cccc(/C=C/C(=O)c2ccc(C(C)(C)C)cc2)c1=S 7.29%
COc1cccc(N/C(SCc2ccccc2F)=C(/C#N)C(=O)NCc2cccs2)c1 5.29%
O=C(COC(=O)CCc1c[nH]c2ccccc12)NC(c1ccccc1)c1ccccc1 2.92% [at 50 µM]
C=CCn1c(SCc2cc(=O)n3ccsc3n2)nc2ccccc2c1=O 7.32%
COc1ccc(C(=O)/C=C/c2ccc(O)cc2)c(O)c1CC=C(C)C 2.58%
CCOC(=O)c1sc(-c2ccc(OC)cc2)cc1NC(C)=O 2.72%
CCc1sc(C(=O)Nc2cc(Cl)ccc2N2CCCCC2)cc1C 3.88% [at 50 µM]
Cc1cc(C)c(OC2(c3ccccc3)OC(=O)c3ccccc32)c(C)c1 (stereo not drawn) 3.41%
CCOC(=O)/C(=N/Nc1ccc(C)cc1)S(=O)(=O)c1ccc(Cl)cc1 1.64% [at 0.782 µM]
CSCSC1=C(C#N)C(c2ccc(Cl)cc2)C(C(C)=O)=C(C)N1 (stereo not drawn) 2.59%
CCCCC1(Cc2cccc([N+](=O)[O-])c2)C(=O)N(c2ccccc2)N(c2ccccc2)C1=O 4.01% [at 50 µM]
O=C(/C=C/c1ccc(-c2ccccc2)o1)c1ccccc1 5.06%
O=C(OCC#CCSc1nnc(-c2cccc3ccccc23)o1)c1cccs1 1.43% [at 25 µM]
COc1ccc(-c2nc3ccccc3c(=O)n2CCOc2cc(C)ccc2C)cc1 4.64% [at 25 µM]
CCCOc1cccc(C(=O)NC(=S)Nc2cccc(C(F)(F)F)c2)c1 3.9%
O=C(COC(=O)CCCNC(=O)c1ccc(Cl)cc1)Nc1cc(Cl)c(Cl)cc1Cl 3.97% [at 50 µM]
COc1ccc2c(c1)CCc1c(C(=O)NCCc3ccc(OC)c(OC)c3)noc1-2 8.66%
Cc1oc2ccc(OC(=O)c3cccs3)cc2c1C(=O)OC(C)C 2.38% [at 6.25 µM]
O=C(CNS(=O)(=O)c1c(Cl)cccc1Cl)OCc1csc(-c2ccccc2)n1 2.5% [at 25 µM]
O=C(CSc1nnc(Cc2cccs2)n1Cc1ccco1)Nc1cc(Cl)cc(Cl)c1 1.96% [at 12.5 µM]
COc1ccc(CNc2oc(COc3ccc(Cl)cc3)nc2C#N)cc1 3.84% [at 25 µM]
COC(=O)[C@@H]1CC[C@H](C)[C@@H](c2ccc(C)cc2)N1C(=O)c1ccc(/C=N/OC[C@@H](O)COCc2ccco2)cc1 2.31% [at 0.391 µM]
COc1ccccc1OC(=O)CCN1c2ccccc2Sc2ccccc21 4.59%
N#CC(Nc1ccccc1)c1ccccc1OCc1ccccc1 (stereo not drawn) 1.53% [at 0.391 µM]
COc1ccc(-c2nc3ccccc3c(=O)n2CCOc2c(C)cccc2C)cc1 4.92%
O=C(COC(=O)CC(c1ccccc1)c1ccccc1)Nc1ccc(F)c(F)c1 1.55% [at 25 µM]
O=C(CCC1CCCCC1)Nc1ccccc1-c1ccccc1 5.76%
CCNC(=O)CSc1nnc(-c2ccccc2Br)n1-c1cccc(C(F)(F)F)c1 4.29% [at 6.25 µM]
CCOC(=O)c1cc(-c2ccccc2)sc1NC(=O)C(C)OC(=O)c1cccnc1OCC (stereo not drawn) 7.09% [at 25 µM]
CC(C)CC(=O)NC(=S)Nc1nc(-c2ccccc2)cs1 2.96% [at 1.563 µM]
CCOC(=O)C(C)(C)N(Cc1cccc(C)c1)S(=O)(=O)c1cccc([N+](=O)[O-])c1 2.41% [at 50 µM]
CC1(C)CC(=O)C2=C(C1)c1c(ccc3ccccc13)NC2c1ccco1 (stereo not drawn) 2.09% [at 25 µM]
CCOC(=O)c1c(-c2cccc([N+](=O)[O-])c2)csc1NC(=O)CCCOc1ccccc1OC 2.67% [at 50 µM]
CCCCCCN(C(=O)CCCCCN1C(=O)NC(c2ccc(-c3ccccc3)cc2)C(C(=O)OCc2ccccc2)=C1C)C(C(=O)NCCCC)c1ccc(OCC(=O)OC)cc1 (stereo not drawn) 8.74%
CCN(CC)S(=O)(=O)c1cc(NS(=O)(=O)c2c(Cl)cccc2Cl)ccc1C 3.03% [at 50 µM]
CCCCC(=O)Nc1cccc(-c2csc(-c3ccccc3)n2)c1 4.92%
CCCCCCOC(=O)C(C#N)c1nc2ccccc2nc1N1CCCCC1 (stereo not drawn) 10%
Cc1noc(C)c1COc1cccc(C(=O)Nc2ccc(OCc3ccccc3)cc2)c1 6.94%
C=CCn1c(SCC(=O)/C(C#N)=C(\C)N)nc2sc(CC)cc2c1=O 19.3%
O=C(OCc1ccccc1)C1=[N+]([O-])OC(C(=O)OCc2ccccc2)C1c1c[nH]c2ccccc12 (stereo not drawn) 3.54%
COc1cccc(-c2ccc(C#N)c(OC(=O)c3c(Cl)cccc3Cl)n2)c1 3.76%
CC(C)OCCCNC(=O)c1c(N)n(/N=C/c2ccccn2)c2nc3ccccc3nc12 12.1%
O=C(/C=C/c1ccc2c(c1)OCO2)NCCSCc1ccc(Cl)cc1Cl 1.8% [at 3.125 µM]
Cc1ccc(C(=O)OCC(=O)Nc2cc(S(=O)(=O)N3CCOCC3)ccc2C)cc1 2.57% [at 0.782 µM]
CCOc1ccc(-c2c(C(=O)N/N=C/c3ccc(OC)cc3)nnn2-c2nonc2N)cc1 2.43% [at 50 µM]
COc1ccc(/C=C2\SC(=S)N(CC(=O)OCC(=O)Nc3ccc(C)cc3Cl)C2=O)cc1 9.7%
CCn1c(=O)c(C(=O)NCCc2ccccc2)c(O)c2ccccc21 2.35%
C=CCN1C(=O)/C(=C\c2cc(Br)c(OCc3ccccn3)c(OC)c2)SC1=S 2.45% [at 12.5 µM]
CCN(CC)S(=O)(=O)c1cccc(NC(=O)CCSc2ccc(Cl)cc2)c1 4.46% [at 6.25 µM]
COc1cccc(CN(Cc2ccco2)S(=O)(=O)c2ccc(S(=O)(=O)NCc3ccccc3)cc2)c1OC 3.28% [at 50 µM]
CCCCOc1ccccc1NC(=O)c1scc2c1OCCO2 5.83% [at 50 µM]
COc1ccc2c(c1)CCc1c(C(=O)N3CCc4ccccc4C3)noc1-2 1.93% [at 12.5 µM]
O=C(/C(=N/N=C/c1ccc(O)c(O)c1O)c1ccccc1)c1ccccc1 1.69% [at 12.5 µM]
CC(=O)Oc1cccc(N2C(=O)c3ccc(C(=O)Nc4c[nH]c(=O)[nH]c4=O)cc3C2=O)c1 5.04%
CCNc1ccc2noc3c2c1C(=O)c1ccccc1-3 14.9%
O=C(O)COc1ccc(/C=N/n2c(COc3ccccc3)nc3ccccc3c2=O)cc1 7.18%
CSc1ccccc1-c1nnc(-c2ccc(Cl)cc2)o1 3.84% [at 50 µM]
O=C(CCC(=O)OCc1cccc(C(=O)Oc2ccccc2)c1)Nc1cccc2ccccc12 4.5% [setting not given]
N#Cc1ccc(-c2cccnc2)nc1SCc1ccc(Cl)c(Cl)c1 11.2%
COC(=O)c1ccc(C2C(Oc3ccccc3C)C(=O)N2CCc2ccc(OC)c(OC)c2)cc1 (stereo not drawn) 2.83%
CCC/C=C(\CCC)C(NS(=O)(=O)c1cccc2cccnc12)c1ccc(C(=O)OC)cc1 (stereo not drawn) 3.88% [at 50 µM]
Cc1ccc(C(=O)/C=C/c2c(C)nn(-c3ccccc3)c2Cl)cc1 4.92%
O=C(CSc1ccccc1)N(c1ccc(Br)cc1)c1nccs1 3.88% [at 3.125 µM]

Reprinted at random: three entries already listed
Max inhibition, inactive:
C=CCN1C(=O)/C(=C\c2cc(Br)c(OCc3ccccn3)c(OC)c2)SC1=S 2.45% [at 12.5 µM]
O=C(COC(=O)CCc1c[nH]c2ccccc12)NC(c1ccccc1)c1ccccc1 2.92% [at 50 µM]
COc1ccccc1NC(=O)C(Sc1ccccc1)c1ccccc1 (stereo not drawn) 2.18% [at 50 µM]

As a working copy, some entries already given.
Max inhibition, inactive:
C=CCn1c(SCC(=O)/C(C#N)=C(\C)N)nc2sc(CC)cc2c1=O 19.3%
O=C(OCc1ccccc1)C1=[N+]([O-])OC(C(=O)OCc2ccccc2)C1c1c[nH]c2ccccc12 (stereo not drawn) 3.54%
COc1cccc(-c2ccc(C#N)c(OC(=O)c3c(Cl)cccc3Cl)n2)c1 3.76%
